{"source": "PubChem BioAssay AID1259405 (NCATS, 2018)", "purpose": "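Mouse-designed siRNAs used to find CHO productivity engineering targets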 (primary screen)", "cells": "Chinese hamster CHO-K1 ovary cells with stable secreted eGFP expression", "reagents": "single siRNA against mouse genes, 0.8 pmol siRNA per well (2 µl of 400 nM stock)", "time to read-out": "3 days", "read-out": "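Percent of the per-plate non-targeting control median for intracellular GFP per well by laser scanning cytometry and for cell viability by ATP luminescence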", "scale": "GFP, % of control: higher = more GFP per well, higher productivity; viability (ATP), % of control: higher = more viable cells (more ATP)", "rule for the call": "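a knock-down is called active if GFP reaches 120% or more of non-targeting control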", "note": "The deposit covers about 50,000 reagents; below is a part drawn at random. About 4,000 of them (8%) were called active. 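Mouse siRNA library applied to hamster cells; one well for each siRNA.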 No sequences are given here."}
{"Gene": "Ankrd16 (GeneID 320816)", "PubChem SID": "SID363546493", "GFP, % of control": 94.8, "viability (ATP), % of control": 64, "outcome": "inactive"}
{"Gene": "Ankrd16 (GeneID 320816)", "PubChem SID": "SID363548249", "GFP, % of control": 36.3, "viability (ATP), % of control": 50.2, "outcome": "inactive"}
{"Gene": "Ankrd16 (GeneID 320816)", "PubChem SID": "SID363560427", "GFP, % of control": 92.7, "viability (ATP), % of control": 56.8, "outcome": "inactive"}
{"Gene": "Postn (GeneID 50706)", "PubChem SID": "SID363573312", "GFP, % of control": 0, "viability (ATP), % of control": 14.6, "outcome": "inactive"}
{"Gene": "Postn (GeneID 50706)", "PubChem SID": "SID363588551", "GFP, % of control": 108, "viability (ATP), % of control": 87.7, "outcome": "inactive"}
{"Gene": "Lce1f (GeneID 67828)", "PubChem SID": "SID363540663", "GFP, % of control": 175, "viability (ATP), % of control": 111, "outcome": "active"}
{"Gene": "Lce1f (GeneID 67828)", "PubChem SID": "SID363543114", "GFP, % of control": 148, "viability (ATP), % of control": 112, "outcome": "active"}
{"Gene": "Lce1f (GeneID 67828)", "PubChem SID": "SID363552607", "GFP, % of control": 91.7, "viability (ATP), % of control": 62.4, "outcome": "inactive"}
{"Gene": "Slc8b1 (GeneID 170756)", "PubChem SID": "SID363574809", "GFP, % of control": 35.4, "viability (ATP), % of control": 59.4, "outcome": "inactive"}
{"Gene": "Slc8b1 (GeneID 170756)", "PubChem SID": "SID363575865", "GFP, % of control": 44.6, "viability (ATP), % of control": 83.7, "outcome": "inactive"}
{"Gene": "Slc8b1 (GeneID 170756)", "PubChem SID": "SID363580441", "GFP, % of control": 83.5, "viability (ATP), % of control": 97.9, "outcome": "inactive"}
{"Gene": "Mtnr1a (GeneID 17773)", "PubChem SID": "SID363571155", "GFP, % of control": 35.2, "viability (ATP), % of control": 37.6, "outcome": "inactive"}
{"Gene": "Mtnr1a (GeneID 17773)", "PubChem SID": "SID363571507", "GFP, % of control": 105, "viability (ATP), % of control": 91.5, "outcome": "inactive"}
{"Gene": "Mtnr1a (GeneID 17773)", "PubChem SID": "SID363571859", "GFP, % of control": 64.6, "viability (ATP), % of control": 55.3, "outcome": "inactive"}
{"Gene": "Tas2r115 (GeneID 353325)", "PubChem SID": "SID363556504", "GFP, % of control": 78.8, "viability (ATP), % of control": 78.7, "outcome": "inactive"}
{"Gene": "Tas2r115 (GeneID 353325)", "PubChem SID": "SID363586954", "GFP, % of control": 55.6, "viability (ATP), % of control": 58.8, "outcome": "inactive"}
{"Gene": "Tas2r115 (GeneID 353325)", "PubChem SID": "SID363589062", "GFP, % of control": 89.5, "viability (ATP), % of control": 85.9, "outcome": "inactive"}

Single entries from the list:
Tas2r115 (GeneID 353325) [SID363556504], outcome → inactive
Entry for Slc8b1 (GeneID 170756) [SID363575865] in “viability (ATP), % of control”: 83.7
